In patent publication EP4840921A1, “HOT MELT ADHESIVE, METHOD FOR PRODUCING SAME, AND COATING METHOD” (dated 2026):

Test: Thermogravimetric (TG) measurement, 10% weight loss temperature
Details: temperature increased at 10°C/min
Procedure: Here, the 10% weight loss temperature in TG measurement means a temperature at a time point at which, in TG measurement when the temperature of the antibacterial agent having a paraben structure is increased at 10°C/min, the weight has decreased by 10% by weight relative to the weight before the temperature increase (that is, the weight of the antibacterial agent having a paraben structure has become 90% relative to the weight before the temperature increase). Hereinafter, in the present specification, the 10% weight loss temperature in TG measurement may be referred to as "T10".

Row | SMILES | T10 (10% weight loss temperature in TG measurement)
1 | CCCOC(=O)c1ccc(O)cc1 | T10: 185.1 °C
2 | CCCCOC(=O)c1ccc(O)cc1 | T10: 193.4 °C

The match of structure and compound is tentative.
